Among the data in PMC7174303 are binding values, retold here.

Chains of the proteins cited; added tags and fusions are not shown.
UniProt Q04887: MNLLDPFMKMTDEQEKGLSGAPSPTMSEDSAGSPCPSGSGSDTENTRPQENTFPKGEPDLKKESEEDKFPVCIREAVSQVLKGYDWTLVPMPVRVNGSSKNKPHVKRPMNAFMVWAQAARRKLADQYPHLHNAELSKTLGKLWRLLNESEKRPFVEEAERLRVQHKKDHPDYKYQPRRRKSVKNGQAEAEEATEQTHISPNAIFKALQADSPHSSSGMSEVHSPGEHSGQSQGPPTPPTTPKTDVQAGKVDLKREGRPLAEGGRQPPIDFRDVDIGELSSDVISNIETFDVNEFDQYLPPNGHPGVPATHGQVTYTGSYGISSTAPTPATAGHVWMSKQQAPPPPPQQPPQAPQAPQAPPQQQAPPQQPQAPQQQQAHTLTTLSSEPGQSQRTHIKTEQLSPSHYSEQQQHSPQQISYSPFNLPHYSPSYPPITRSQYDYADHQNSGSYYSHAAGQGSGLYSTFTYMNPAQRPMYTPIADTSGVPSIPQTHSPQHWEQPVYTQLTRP

In this experiment the target is Sox9 (sex-determining region Y (SRY) box 9) (mouse (endogenous in mouse kidney)) (UniProt Q04887). Nature of the experiment: co-IP; endogenous proteins in renal tissues (control and AKI); Cdkl5-IP (anti-CDKL5, Millipore MABS1132) and reverse Sox9-IP (anti-SOX9, Abcam ab3697); lysates in modified RIPA buffer with 0.2% beta-maltoside; western blot. In general terms: In western blotting, separated proteins are transferred to a membrane and probed.

These are yes or no findings as the source states them, for the method shown. Binding seen in cells or lysates may run through a third protein. Some results given as binding are weak or reduced against the parent protein; the word gives no strength.

B1: cyclin-dependent kinase-like 5 (Cdkl5) (enzyme, UniProt Q3UTQ8 1-938)
chain: MKIPNIGNVMNKFEILGVVGEGAYGVVLKCRHKETHEIVAIKKFKDSEENEEVKETTLRELKMLRTLKQENIVELKEAFRRRGKLYLVFEYVEKNMLELLEEMPNGVPPEKVKSYIYQLIKAIHWCHKNDIVHRDIKPENLLISHNDVLKLCDFGFARNLSEGNNANYTEYVATRWYRSPELLLGAPYGKSVDMWSVGCILGELSDGQPLFPGESEIDQLFTIQKVLGPLPSEQMKLFYSNPRFHGLRFPAVNHPQSLERRYLGILNSVLLDLMKNLLKLDPADRYLTEQCLNHPTFQTQRLLDRSPSRSTKRKPYHVESSTLSNRNQSTKGAALQTHHRSNSKDIQNLSVGLPRAEEGLPANESFLNGNLAGATLSPMHTKTYQASTQPGSSSKDLTNNNIPHLLSPKEAKSKTEFDFNIDTKPSEGPGTKYLKSSTRSQQNRHSFMESSQSKAGTLQPSEKQSRHSYIDTIPQSSRSPSYRTKAKSHGALSDSKSVSNLSEARAQITETNTSRYFPSSCLDLNSPTSPTPTRHTDTRTLLSPSGRNNRNEGTLDSRRTTTRHSKTMEELKLPEHMDSSHSHSLSAPHESFSYGLGYTSPFSSQQRPHRHSMYVTRDKVRAKGLDGSLSIGQGMAARANSLQLLSPQPGEQLPPEMTVARPSVKESSREGASSFHTRQKSEGGVYHDPHSDDGTAPKENRHLYNDPVPRRVGSFYRVPSPRPDNSFHENNVSTRVSSLPSDSSSGTNHSKRQPGFDPWKSPENISHADQLKEKEKQGFFRSMKKKKKKTQTVPNTDGPDLLTLQKAIHSSSTASSRPKEWRPEKLSDLQTQSQPLKSLRKLLHLSSSTNHPASSDPRFQPLTAQQAKNSFSEIRIHPLSQATGGSSNIRQEPTPKGRPALQLPGSSLLRYNGWKHSRSRSSQPDEVIFLASHEKWKQ
B1: the binding entry is given as “binds”.
